The supplement of paper PMC4604168 (melanoma cell lines)
Some of the results follow. Single values are uncertain, as repeats are few or missing.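 The apoptosis fraction was the count of cleaved-PARP antibody-stained nuclei relative to all DNA-stained nuclei, imaged in 1,536-well plates. Screening doses were set so most cells survived, and baseline and induced cleaved-PARP levels vary greatly across cell lines.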

Assays:
Assay in all cases: cleaved PARP positive nuclei fraction relative to DMSO control; melanoma cells; higher = more apoptosis
Details in all cases: library dose: low library concentration; 72 h
501Mel = system: 501Mel
A101D = system: A101D
A2058 = system: A2058
C32 = system: C32
CBRC008 = system: CBRC008 (line from a melanoma biopsy)
CBRC014 = system: CBRC014 (line from a melanoma biopsy)
CBRC016 = system: CBRC016 (line from a melanoma biopsy)
CBRC017 = system: CBRC017 (line from a melanoma biopsy)
COLO792 = system: COLO792
COLO800 = system: COLO800
COLO829 = system: COLO829
G361 = system: G361
IPC-298 = system: IPC-298
IST-MEL1 = system: IST-MEL1
LB2518-MEL = system: LB2518-MEL
LOXIMVI = system: LOXIMVI

Structure (SMILES)	cleaved PARP positive nuclei fraction (501Mel) [%]	cleaved PARP positive nuclei fraction (A101D) [%]	cleaved PARP positive nuclei fraction (A2058) [%]	cleaved PARP positive nuclei fraction (C32) [%]	cleaved PARP positive nuclei fraction (CBRC008) [%]	cleaved PARP positive nuclei fraction (CBRC014) [%]	cleaved PARP positive nuclei fraction (CBRC016) [%]	cleaved PARP positive nuclei fraction (CBRC017) [%]	cleaved PARP positive nuclei fraction (COLO792) [%]	cleaved PARP positive nuclei fraction (COLO800) [%]	cleaved PARP positive nuclei fraction (COLO829) [%]	cleaved PARP positive nuclei fraction (G361) [%]	cleaved PARP positive nuclei fraction (IPC-298) [%]	cleaved PARP positive nuclei fraction (IST-MEL1) [%]	cleaved PARP positive nuclei fraction (LB2518-MEL) [%]	cleaved PARP positive nuclei fraction (LOXIMVI) [%]
CNC(=O)c1cc(Oc2ccc(NC(=O)Nc3ccc(Cl)c(C(F)(F)F)c3)cc2)ccn1 [sorafenib] + COc1ccc2c(c1)CCC1C2CCC2(C)C(NCCCCCCN3C(=O)C=CC3=O)CCC12 [U73122] (first compound 0.4 µM, partner dose 0.4 µM)	67.8	7140	93.5	89.9	30.2	117	119	132	137	26.8	89.2	64.3	47.3	36.3	144	49.4
Nc1ccn([C@@H]2O[C@H](CO)[C@@H](O)C2(F)F)c(=O)n1 [gemcitabine] + COc1ccc2c(c1)CCC1C2CCC2(C)C(NCCCCCCN3C(=O)C=CC3=O)CCC12 [U73122] (first compound 0.0004 µM, partner dose 0.4 µM)	63.6	21.8	27.8	335	86.9	202	209	156	113	53	199	88.4	56.1	192	137	57.1
O=C(O)c1ccc2c(c1)nc(Nc1cccc(Cl)c1)c1ccncc12 + O=C(Nc1ccccc1)c1cc([N+](=O)[O-])ccc1Cl [GW9662] (first compound 0.4 µM, partner dose 2 µM)	60.9	49.6	158	133	142	106	190	153	16.7	257	138	145	65.9	47.7	118	91.9
Nc1ccn([C@@H]2O[C@H](CO)[C@@H](O)C2(F)F)c(=O)n1 [gemcitabine] + O=C1NC(=O)/C(=C/c2ccc(-c3ccc(F)cc3O)o2)S1 [AS252424] (first compound 0.0004 µM, partner dose 1 µM)	76.8	23.3	59.1	146	81.6	124	226	133	99.7	73.5	63	151	108	292	52.3	72
Nc1nc(F)nc2c1ncn2[C@@H]1O[C@H](CO)[C@@H](O)[C@@H]1O [fludarabine] + O=C1NC(=O)/C(=C/c2ccc(-c3ccc(F)cc3O)o2)S1 [AS252424] (first compound 0.2 µM, partner dose 1 µM)	1770	27.7	171	163	137	84	71.1	89.9	207	88.7	146	107	94	45.7	17.4	51.5
O=C(O)[C@@H]1[O][Sb](=[O])([O][Sb]2(=[O])[O][C@H]([C@H](O)CO)[C@H](O)[C@H](C(=O)O)[O]2)[O][C@H]([C@H](O)CO)[C@@H]1O (some centres not stated) [stibogluconate] + COc1cc(N2CCC(N3CCN(C)CC3)CC2)ccc1Nc1ncc(Cl)c(Nc2ccccc2S(=O)(=O)C(C)C)n1 [NVP-TAE684] (first compound 2 µM, partner dose 0.08 µM)	33.8	53.4	84.9	194	97.4	100	66.4	96.4	97.3	125	56.3	137	155	104	39.1	175
CO[C@H]1C[C@@H]2CC[C@@H](C)[C@@](O)(O2)C(=O)C(=O)N2CCCC[C@H]2C(=O)O[C@H]([C@H](C)C[C@@H]2CC[C@@H](OCCO)[C@H](OC)C2)CC(=O)[C@H](C)/C=C(\C)[C@@H](O)[C@@H](OC)C(=O)[C@H](C)C[C@H](C)/C=C/C=C/C=C/1C [everolimus] + Oc1nc(-c2ccc(C(F)(F)F)cc2)nc2c1CSCC2 [XAV939] (first compound 0.02 µM, partner dose 2 µM)	114	34.3	117	637	183	88.8	86.1	84	292	102	114	241	126	174	119	161
CO[C@H]1C[C@@H]2CC[C@@H](C)[C@@](O)(O2)C(=O)C(=O)N2CCCC[C@H]2C(=O)O[C@H]([C@H](C)C[C@@H]2CC[C@@H](OCCO)[C@H](OC)C2)CC(=O)[C@H](C)/C=C(\C)[C@@H](O)[C@@H](OC)C(=O)[C@H](C)C[C@H](C)/C=C/C=C/C=C/1C [everolimus] + Cc1cc([N+](=O)[O-])ccc1NS(=O)(=O)c1cc(Cl)ccc1Cl [FH535] (first compound 0.02 µM, partner dose 1 µM)	107	57.9	175	99.3	599	224	269	745	183	85.8	237	152	551	146	150	202
Cn1c(=O)n(-c2ccc(C(C)(C)C#N)cc2)c2c3cc(-c4cnc5ccccc5c4)ccc3ncc21 + O=C(O)C(=O)Nc1sc2c(c1C(=O)O)CCNC2 [TCS401] (first compound 0.004 µM, partner dose 1.66667 µM)	69.2	23.6	14	233	60.7	96.2	70.4	137	220	165	56.1	167	96.6	159	66.8	139
CS(=O)(=O)CCNCc1ccc(-c2ccc3ncnc(Nc4ccc(OCc5cccc(F)c5)c(Cl)c4)c3c2)o1 [lapatinib] + c1cc(-c2cnn3cc(-c4ccc(OCCN5CCCCC5)cc4)cnc23)ccn1 [Dorsomorphin] (first compound 0.8 µM, partner dose 0.4 µM)	81.9	35.9	277	44.2	90.5	92.9	79.8	146	71.3	220	52.1	122	141	77.3	71.2	330
C=C(c1ccc(C(=O)O)cc1)c1cc2c(cc1C)C(C)(C)CCC2(C)C [Bexarotene] + O=S(=O)(c1ccccc1)N(CC(F)(F)F)c1ccc(C(O)(C(F)(F)F)C(F)(F)F)cc1 [T0901317] (first compound 2 µM, partner dose 1.4 µM)	89.3	13.5	75.9	161	360	116	318	142	61.9	75.3	20.7	171	56	109	133	67.7
CC(C)C[C@H](NC(=O)[C@H](Cc1ccccc1)NC(=O)c1cnccn1)B(O)O [Bortezomib] + O=C(O)C(=O)Nc1sc2c(c1C(=O)O)CCNC2 [TCS401] (first compound 0.001 µM, partner dose 1.66667 µM)	179	126	94.4	50.3	939	186	520	132	72.6	23.1	319	989	63	178	61.1	152
CC(C)C[C@H](NC(=O)[C@H](Cc1ccccc1)NC(=O)c1cnccn1)B(O)O [Bortezomib] + Oc1nc(-c2ccc(C(F)(F)F)cc2)nc2c1CSCC2 [XAV939] (first compound 0.001 µM, partner dose 2 µM)	65.5	29.8	139	126	234	87.4	39.6	102	108	103	98.9	223	47.6	68.8	300	128
C=C(c1ccc(C(=O)O)cc1)c1cc2c(cc1C)C(C)(C)CCC2(C)C [Bexarotene] + Oc1cc(-c2nc(-c3ccccc3)[nH]c2-c2ccncc2)ccc1Cl [L779450] (first compound 2 µM, partner dose 0.2 µM)	74.6	24	57.1	116	250	90.8	53.7	218	93.9	22.1	97.6	118	52.3	149	83.7	23.8
CN1CCN(c2ccc3nc(-c4c(N)c5c(F)cccc5[nH]c4=O)[nH]c3c2)CC1 [Dovitinib] + O=C1NC(=O)/C(=C/c2ccc(-c3ccc(F)cc3O)o2)S1 [AS252424] (first compound 0.1 µM, partner dose 1 µM)	82.5	20.4	44.9	77.8	118	97.4	49.5	54.3	146	51	45.1	122	96	51.9	79.6	195
Nc1nc(F)nc2c1ncn2[C@@H]1O[C@H](CO)[C@@H](O)[C@@H]1O [fludarabine] + O=C(O)C(=O)Nc1sc2c(c1C(=O)O)CCNC2 [TCS401] (first compound 0.2 µM, partner dose 1.66667 µM)	694	23.7	82.3	117	79.6	76.5	121	76.4	88.5	79.5	144	42.2	123	87	41.9	53.9
Cc1cc(Nc2cc(N3CCN(C)CC3)nc(/C=C/c3ccccc3)n2)n[nH]1 + CCN(CC)CCCCNc1ncc2cc(-c3cc(OC)cc(OC)c3)c(NC(=O)NC(C)(C)C)nc2n1 [PD173074] (first compound 0.04 µM, partner dose 0.1 µM)	74.2	26	47.7	94.2	22.5	92.4	42.8	111	178	82.8	237	60.7	128	86.6	71.2	226

At a glance, part of the list above:
Structure (SMILES)	cleaved PARP positive nuclei fraction (501Mel) [%]	cleaved PARP positive nuclei fraction (A101D) [%]	cleaved PARP positive nuclei fraction (A2058) [%]	cleaved PARP positive nuclei fraction (C32) [%]	cleaved PARP positive nuclei fraction (CBRC008) [%]	cleaved PARP positive nuclei fraction (CBRC014) [%]	cleaved PARP positive nuclei fraction (CBRC016) [%]	cleaved PARP positive nuclei fraction (CBRC017) [%]	cleaved PARP positive nuclei fraction (COLO792) [%]	cleaved PARP positive nuclei fraction (COLO800) [%]	cleaved PARP positive nuclei fraction (COLO829) [%]	cleaved PARP positive nuclei fraction (G361) [%]	cleaved PARP positive nuclei fraction (IPC-298) [%]	cleaved PARP positive nuclei fraction (IST-MEL1) [%]	cleaved PARP positive nuclei fraction (LB2518-MEL) [%]	cleaved PARP positive nuclei fraction (LOXIMVI) [%]
CC(C)C[C@H](NC(=O)[C@H](Cc1ccccc1)NC(=O)c1cnccn1)B(O)O [Bortezomib] + O=C(O)C(=O)Nc1sc2c(c1C(=O)O)CCNC2 [TCS401] (first compound 0.001 µM, partner dose 1.66667 µM)	179	126	94.4	50.3	939	186	520	132	72.6	23.1	319	989	63	178	61.1	152
CC(C)C[C@H](NC(=O)[C@H](Cc1ccccc1)NC(=O)c1cnccn1)B(O)O [Bortezomib] + Oc1nc(-c2ccc(C(F)(F)F)cc2)nc2c1CSCC2 [XAV939] (first compound 0.001 µM, partner dose 2 µM)	65.5	29.8	139	126	234	87.4	39.6	102	108	103	98.9	223	47.6	68.8	300	128
